# Test results from PubChem BioAssay AID330 (DTP/NCI, 2004).
# The list does not hold the whole screen: it is rich in T/C values a quarter to a half above the control, in often repeated tests (any T/C) and in doses without a T/C. Further doses and runs are listed elsewhere. T/C: endpoint of the treated group in % of that of the vehicle group. Some doses have a count of surviving animals in place of a T/C: the source files T/C as zero there, which appears to mark a toxic dose or a test without result, not a measured value. Some survivor counts are full or nearly so, which does not show that the dose was tolerated: survival well below the control is almost never listed, so the zero probably covers shortened survival too. Survivors were counted at the toxicity check, usually on the fifth day, unless a day is given; later deaths do not show. Schedules are NCI's codes, taken here to give the interval after Q, in days (D) or hours (H), and the number of doses after X. Brackets with × count equal records among those shown. Some entries hold several experiments; the results are listed from low to high. Where survival is the endpoint, the PubChem record calls one and a half times the control and up active, and a quarter to a half above the control has no call in these data; cut-offs in other NCI protocols can differ. Some T/C values are followed by the survivors on the day toxicity was checked, most often the fifth; where none is given, no animal had died by that day.
# System: P388 leukemia ip, CD2F1 mice, survival T/C
# Assay: NCI In Vivo Anticancer Drug Screen. Data for tumor model P388 Leukemia (intraperitoneal) in CD2F1 (CDF1) mice
# Settings: T/C endpoint: median survival time, higher T/C = longer survival
# [1] = dose: 50.0 mg/kg/injection, schedule: Q01DX005 (ip), vehicle: Klucel (hydroxypropylcellulose) (HPC)
# [2] = dose: 100.0 mg/kg/injection, schedule: Q01DX005 (ip), vehicle: Klucel (hydroxypropylcellulose) (HPC)
# [3] = dose: 200.0 mg/kg/injection, schedule: Q01DX005 (ip), vehicle: Klucel (hydroxypropylcellulose) (HPC)
# [4] = dose: 200.0 mg/kg/injection, schedule: Q01DX009 (ip), vehicle: saline
structure (smiles),measurement,setting,value
COc1cccc2c1C(=N)c1c(O)c3c(c(O)c1C2=O)C[C@@](O)(C(C)=O)C[C@@H]3OC1CC(N)C(O)C(C)O1 (stereo not given in full),T/C,"dose: 0.25 mg/kg/injection, schedule: Q01DX009 (ip), vehicle: water",137 and 138 % of control
same,T/C,"dose: 0.5 mg/kg/injection, schedule: Q01DX009 (ip), vehicle: saline",146 % of control
same,T/C,"dose: 0.5 mg/kg/injection, schedule: Q01DX009 (ip), vehicle: water",137 % of control
same,T/C,"dose: 1.5 mg/kg/injection, schedule: Q04DX003 (ip), vehicle: water",133 % of control [5 of 6 alive]
same,T/C,"dose: 1.94 mg/kg/injection, schedule: Q04DX003 (ip), vehicle: water",137 % of control
same,T/C,"dose: 3.0 mg/kg/injection, schedule: Q04DX003 (ip), vehicle: water",136 % of control
same,T/C,"dose: 4.0 mg/kg/injection, schedule: Q01DX009 (ip), vehicle: saline",140 % of control
same,T/C,"dose: 12.0 mg/kg/injection, schedule: Q04DX003 (ip), vehicle: water",130 % of control
same,survivor count,"dose: 16.0 mg/kg/injection, schedule: Q01DX009 (ip), vehicle: water",6 of 6
same,T/C,"dose: 24.0 mg/kg/injection, schedule: Q04DX003 (ip), vehicle: water",130 % of control
same,T/C,"dose: 48.0 mg/kg/injection, schedule: Q04DX003 (ip), vehicle: water",125 % of control
CC1(C)C(=O)N(Cl)C(=O)N1Cl,survivor count,"dose: 25.0 mg/kg/injection, schedule: Q01DX005 (ip), vehicle: Klucel (hydroxypropylcellulose) (HPC)",4 of 5
same,survivor count,"dose: 25.0 mg/kg/injection, schedule: Q01DX009 (ip), vehicle: saline with Tween-80",2 of 6
same,survivor count,"dose: 37.5 mg/kg/injection, schedule: Q01DX009 (ip), vehicle: saline with Tween-80",3 of 6
same,survivor count,[1],0 of 5 and 1 of 5
same,survivor count,"dose: 50.0 mg/kg/injection, schedule: Q01DX005 (ip), vehicle: saline with Tween-80",0 of 6
same,survivor count,[2],0 of 5 and 1 of 5
same,survivor count,[3],0 of 5 (2×)
CCC(=O)Oc1ccc[nH]c1=O,T/C,[4],"103, 111, 115 [5 of 6 alive], 119 % of control"
same,T/C,"dose: 300.0 mg/kg/injection, schedule: Q01DX009 (ip), vehicle: Klucel (hydroxypropylcellulose) (HPC)",125 and 128 % of control
same,T/C,"dose: 400.0 mg/kg/injection, schedule: Q01DX009 (ip), vehicle: Klucel (hydroxypropylcellulose) (HPC)",134 % of control
same,T/C,"dose: 400.0 mg/kg/injection, schedule: Q01DX009 (ip), vehicle: saline with Tween-80",133 % of control
same,T/C,"dose: 400.0 mg/kg/injection, schedule: Q01DX009 (ip), vehicle: saline","118, 119, 122 [5 of 6 alive], 143 % of control"
same,T/C,"dose: 500.0 mg/kg/injection, schedule: Q01DX009 (ip), vehicle: Klucel (hydroxypropylcellulose) (HPC)",136 % of control
same,T/C,"dose: 500.0 mg/kg/injection, schedule: Q01DX009 (ip), vehicle: saline",134 and 136 % of control
same,T/C,"dose: 600.0 mg/kg/injection, schedule: Q01DX009 (ip), vehicle: Klucel (hydroxypropylcellulose) (HPC)",136 and 142 % of control
same,T/C,"dose: 600.0 mg/kg/injection, schedule: Q01DX009 (ip), vehicle: saline with Tween-80",136 % of control
same,T/C,"dose: 600.0 mg/kg/injection, schedule: Q01DX009 (ip), vehicle: saline",134 % of control
CCn1c2ccccc2c2cc(/C=N/Nc3cc(C)nc4cc5c(cc34)OCO5)ccc21,survivor count,[3],6 of 6
O=C(Nc1cccc(Cl)c1)N1CCNC1=S,survivor count,"dose: 200.0 mg/kg/injection, schedule: Q01DX009 (ip), vehicle: Klucel (hydroxypropylcellulose) (HPC)",6 of 6
CC(=O)C1=C(C)O/C(=C/c2ccc(Cl)cc2)C1=O,survivor count,"dose: 200.0 mg/kg/injection, schedule: Q01DX005 (ip), vehicle: saline with Tween-80",6 of 6
c1cc[n+](Cc2c3ccccc3cc3c2ccc2ccccc23)cc1,survivor count,[1],4 of 5
same,survivor count,[2],0 of 5
same,survivor count,[3],0 of 5
CC1(C)OC(=O)C(CCc2ccccn2)(CCc2ccccn2)C(=O)O1,survivor count,"dose: 50.0 mg/kg/injection, schedule: Q01DX009 (ip), vehicle: saline with Tween-80",3 of 6
C[CH2][Sn]([Br])([CH2]C)[c]1c(CN(C)C)cccc1CN(C)C,survivor count,"dose: 12.5 mg/kg/injection, schedule: Q01DX009 (ip), vehicle: saline",5 of 6
same,T/C,"dose: 25.0 mg/kg/injection, schedule: Q01DX009 (ip), vehicle: saline",136 % of control [5 of 6 alive]
same,survivor count,"dose: 50.0 mg/kg/injection, schedule: Q01DX009 (ip), vehicle: saline",0 of 6
same,survivor count,"dose: 100.0 mg/kg/injection, schedule: Q01DX009 (ip), vehicle: saline",0 of 6
same,survivor count,[4],0 of 6
